Test results from paper PMC4600732.
Results are given in words; binding and its absence hold for the method and conditions named. In cells and extracts the contact can be indirect.

The chains behind the UniProt entries cited, without tags or fusion partners.
UniProt O95819: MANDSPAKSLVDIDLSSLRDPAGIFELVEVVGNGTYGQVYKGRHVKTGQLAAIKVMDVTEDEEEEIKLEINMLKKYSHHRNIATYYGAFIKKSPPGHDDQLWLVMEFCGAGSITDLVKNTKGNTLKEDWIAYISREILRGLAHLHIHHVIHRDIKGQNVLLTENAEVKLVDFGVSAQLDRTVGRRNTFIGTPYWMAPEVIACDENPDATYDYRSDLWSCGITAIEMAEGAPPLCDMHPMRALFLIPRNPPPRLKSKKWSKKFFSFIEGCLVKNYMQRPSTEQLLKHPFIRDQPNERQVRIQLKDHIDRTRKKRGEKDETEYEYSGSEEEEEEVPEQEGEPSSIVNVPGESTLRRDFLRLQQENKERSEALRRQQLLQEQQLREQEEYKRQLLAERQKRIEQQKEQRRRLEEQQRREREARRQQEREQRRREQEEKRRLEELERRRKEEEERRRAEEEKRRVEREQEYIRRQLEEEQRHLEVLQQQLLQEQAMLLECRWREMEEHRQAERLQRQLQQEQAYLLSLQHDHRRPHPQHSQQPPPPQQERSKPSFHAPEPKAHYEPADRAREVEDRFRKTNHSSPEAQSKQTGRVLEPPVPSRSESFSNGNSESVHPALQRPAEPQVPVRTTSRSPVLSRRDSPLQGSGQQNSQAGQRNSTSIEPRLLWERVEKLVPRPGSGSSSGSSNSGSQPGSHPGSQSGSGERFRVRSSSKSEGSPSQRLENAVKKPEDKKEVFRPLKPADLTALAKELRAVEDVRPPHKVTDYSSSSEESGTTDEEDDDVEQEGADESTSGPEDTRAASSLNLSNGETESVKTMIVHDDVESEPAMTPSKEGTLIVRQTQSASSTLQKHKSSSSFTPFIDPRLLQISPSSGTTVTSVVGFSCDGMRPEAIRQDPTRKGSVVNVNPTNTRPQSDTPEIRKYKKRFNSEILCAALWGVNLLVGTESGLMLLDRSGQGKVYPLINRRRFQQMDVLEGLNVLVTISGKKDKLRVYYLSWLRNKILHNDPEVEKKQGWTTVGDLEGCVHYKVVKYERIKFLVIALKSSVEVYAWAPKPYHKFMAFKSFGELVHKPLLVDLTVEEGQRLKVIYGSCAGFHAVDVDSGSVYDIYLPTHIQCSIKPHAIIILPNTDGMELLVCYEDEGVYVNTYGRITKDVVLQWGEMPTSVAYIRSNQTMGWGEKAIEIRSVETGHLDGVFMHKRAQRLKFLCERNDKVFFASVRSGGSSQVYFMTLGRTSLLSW

Target: MAP4K4, endogenous (human (endogenous in HEK293A)) (UniProt O95819)
Assay: co-IP; MST1 and MAP4K4 antibodies used for co-immunoprecipitation with HEK293A cell lysates (endogenous proteins)

B1: SAV1 (Sav family WW domain-containing protein 1), endogenous (protein, UniProt Q9H4B6 1-383)
chain: MLSRKKTKNEVSKPAEVQGKYVKKETSPLLRNLMPSFIRHGPTIPRRTDICLPDSSPNAFSTSGDVVSRNQSFLRTPIQRTPHEIMRRESNRLSAPSYLARSLADVPREYGSSQSFVTEVSFAVENGDSGSRYYYSDNFFDGQRKRPLGDRAHEDYRYYEYNHDLFQRMPQNQGRHASGIGRVAATSLGNLTNHGSEDLPLPPGWSVDWTMRGRKYYIDHNTNTTHWSHPLEREGLPPGWERVESSEFGTYYVDHTNKKAQYRHPCAPSVPRYDQPPPVTYQPQQTERNQSLLVPANPYHTAEIPDWLQVYARAPVKYDHILKWELFQLADLDTYQGMLKLLFMKELEQIVKMYEAYRQALLTELENRKQRQQWYAQQHGKNF
  binding: no binding
